Assay results as given in US12459974B2, “Bicyclic peptide ligands specific for Nectin-4” (priority 2018, dated 2025).
The source gives many values for each of these; only a part stands here. *1 amine or outer side, *2 acyl side, *3 side chain or, on linkers, in order; H or OH if unused. Where a SMILES comes first, the peptide text is derived from it. Bridges are numbered along the chain shown (N, C = ends). Roman numbers before positions name the chains, in order. [ ]: non-standard residue; d: D form. The star is where a group is joined. ξ: configuration not given here. TATA = O=C(CC[*:1])N1CN(C(=O)CC[*:2])CN(C(=O)CC[*:3])C1; Dolaproine = CO[C@@H]([C@@H]1CCCN1)[C@@H](C)C(=O)O; X1 = CC[C@H](C)C(C(CC(=O)[*:2])OC)N(C)[*:1]; 1Nal = N[C@@H](Cc1cccc2ccccc12)C(=O)O; X3 = O=C(CCCC(=O)[*:2])NCCC(=O)[*:1]; PABC = O=C(OCc1ccc(N[*:1])cc1)[*:2]; Hyp = O=C(O)[C@@H]1C[C@@H](O)CN1; hArg = N=C(N)NCCCC[C@H](N)C(=O)O; Cit = NC(=O)NCCC[C@H](N)C(=O)O; X2 = CC(N*)[C@@H](O)c1ccccc1; ξNMeV = CNC(C(=O)O)C(C)C; ξV = CC(C)C(N)C(=O)O; Sar = CNCC(=O)O

Tested on: MDA-MB-468 xenograft
Assay: Example 9.8: in vivo efficacy of BCY8245, BCY8781 and BCY8245 with BCY8234 in MDA-MB-468 xenograft in Balb/c nude mice
Parameters: species or system Mus Musculus

CC[C@H](C)C(C(CC(=O)N1CCC[C@H]1[C@H](OC)[C@@H](C)C(=O)NC(C)[C@@H](O)c1ccccc1)OC)N(C)C(=O)[C@@H](NC(=O)C(C(C)C)N(C)C(=O)OCc1ccc(NC(=O)[C@H](CCCNC(N)=O)NC(=O)C(NC(=O)CCCC(=O)NCCC(=O)N(C)CC(=O)N(C)CC(=O)N(C)CC(=O)N(C)CC(=O)N(C)CC(=O)N(C)CC(=O)N(C)CC(=O)N(C)CC(=O)N(C)CC(=O)N(C)CC(=O)N[C@H]2CSCCC(=O)N3CN4CN(C3)C(=O)CCSC[C@H](NC(=O)[C@@H](CC(=O)O)NC(=O)[C@H](Cc3cccc5ccccc35)NC(=O)[C@@H]3CCCN3C2=O)C(=O)N[C@@H](CCSC)C(=O)N[C@@H](CCCCNC(=N)N)C(=O)N[C@@H](CC(=O)O)C(=O)N[C@@H](Cc2c[nH]c3ccccc23)C(=O)N[C@@H](CO)C(=O)N[C@@H]([C@@H](C)O)C(=O)N2CCC[C@H]2C(=O)N2C[C@H](O)C[C@H]2C(=O)N[C@@H](Cc2c[nH]c3ccccc23)C(=O)N[C@H](C(N)=O)CSCCC4=O)C(C)C)cc1)C(C)C (stereo partly drawn) [BCY8245, MMAE-PABC-Cit-Val-Glutaryl-BCY8234] (I: [Sar][Sar][Sar][Sar][Sar][Sar][Sar][Sar][Sar][Sar]CP[1Nal][dD]CM[hArg]DWSTP[Hyp]WC-NH2 / II: [ξV][Cit][PABC][ξNMeV]V[X1][Dolaproine]-X2; linker I:11-I:15-I:25 via TATA; linker I:N-II:N via X3)
Tumor volume (1 mpk, qw, day 32): 239 ± 16 mm^3 | Tumor volume (1 mpk, qw, day 35): 255 ± 15 mm^3 | Tumor volume (1 mpk, qw, day 37): 292 ± 19 mm^3 | Tumor volume (1 mpk, qw, day 39): 304 ± 36 mm^3 | Tumor volume (1 mpk, qw, day 42): 314 ± 42 mm^3 | Tumor volume (1 mpk, qw, day 44): 327 ± 42 mm^3 | Tumor volume (1 mpk, qw, day 46): 342 ± 55 mm^3 | Tumor volume (1 mpk, qw, day 49): 356 ± 59 mm^3 | Tumor volume (1 mpk, qw, day 51): 374 ± 71 mm^3 | Tumor volume (1 mpk, qw, day 53): 381 ± 87 mm^3 | Tumor volume (1 mpk, qw, day 56): 416 ± 104 mm^3 | Tumor volume (1 mpk, qw, day 58): 433 ± 113 mm^3 | Tumor volume (1 mpk, qw, day 60): 464 ± 119 mm^3 | Tumor volume (1 mpk, qw, day 64): 532 ± 154 mm^3 | Tumor volume (1 mpk, qw, day 67): 550 ± 162 mm^3 | Tumor volume (1 mpk, qw, day 71): 565 ± 170 mm^3 | Tumor volume (1 mpk, qw, day 74): 594 ± 173 mm^3 | Tumor volume (1 mpk, qw, day 78): 612 ± 195 mm^3 | Tumor volume (1 mpk, qw, day 81): 639 ± 206 mm^3 | Tumor volume (1 mpk, qw, day 84): 695 ± 234 mm^3 | Tumor volume (1 mpk, qw, day 88): 743 ± 236 mm^3 | Tumor volume (1 mpk, qw, day 91): 771 ± 240 mm^3 | Tumor volume (3 mpk, qw, i.v., day 0 after the start of treatment): 181 mm^3 | Tumor volume (3 mpk, qw, i.v., day 2): 171 mm^3 | Tumor volume (3 mpk, qw, i.v., day 4): 163 mm^3 | Tumor volume (3 mpk, qw, i.v., day 7): 141 mm^3 | Tumor volume (3 mpk, qw, i.v., day 9): 113 mm^3 | Tumor volume (3 mpk, qw, i.v., day 11): 92 mm^3 | Tumor volume (3 mpk, qw, i.v., day 14): 66 mm^3 | Tumor volume (3 mpk, qw, i.v., day 16): 58 mm^3 | Tumor volume (3 mpk, qw, i.v., day 18): 41 mm^3 | Tumor volume (3 mpk, qw, i.v., day 21): 27 mm^3 | Tumor volume (3 mpk, qw, Mean ± SEM): 27 ± 1 mm^3 | Tumor volume (3 mpk, qw, day 23): 22 ± 3 mm^3 | Tumor volume (3 mpk, qw, day 25): 19 ± 3 mm^3 | Tumor volume (3 mpk, qw, day 28): 20 ± 3 mm^3 | Tumor volume (3 mpk, qw, day 30): 15 ± 2 mm^3 | Tumor volume (3 mpk, qw, day 32): 15 ± 1 mm^3 | Tumor volume (3 mpk, qw, day 35): 19 ± 2 mm^3 | Tumor volume (3 mpk, qw, day 37): 16 ± 2 mm^3 | Tumor volume (3 mpk, qw, day 39): 14 ± 1 mm^3 | Tumor volume (3 mpk, qw, day 42): 14 ± 2 mm^3 | Tumor volume (3 mpk, qw, day 44): 18 ± 4 mm^3 | Tumor volume (3 mpk, qw, day 46): 19 ± 4 mm^3 | Tumor volume (3 mpk, qw, day 49): 20 ± 4 mm^3 | Tumor volume (3 mpk, qw, day 51): 18 ± 5 mm^3 | Tumor volume (3 mpk, qw, day 53): 22 ± 4 mm^3 | Tumor volume (3 mpk, qw, day 56): 21 ± 4 mm^3 | Tumor volume (3 mpk, qw, day 58): 20 ± 5 mm^3 | Tumor volume (3 mpk, qw, day 60): 18 ± 6 mm^3 | Tumor volume (3 mpk, qw, day 64): 23 ± 6 mm^3 | Tumor volume (3 mpk, qw, day 67): 23 ± 5 mm^3 | Tumor volume (3 mpk, qw, day 71): 24 ± 7 mm^3 | Tumor volume (3 mpk, qw, day 74): 27 ± 8 mm^3 | Tumor volume (3 mpk, qw, day 78): 23 ± 6 mm^3 | Tumor volume (3 mpk, qw, day 81): 27 ± 8 mm^3 | Tumor volume (3 mpk, qw, day 84): 34 ± 7 mm^3 | Tumor volume (3 mpk, qw, day 88): 32 ± 7 mm^3 | Tumor volume (3 mpk, qw, day 91): 26 ± 6 mm^3 | Tumor volume (Group 1 (vehicle, qw) dosed with 5 mpk on PG-D32, day 35): 455 ± 81 mm^3 | Tumor volume (Group 1 (vehicle, qw) dosed with 5 mpk on PG-D32, day 37): 373 ± 92 mm^3 | Tumor volume (Group 1 (vehicle, qw) dosed with 5 mpk on PG-D32, day 39): 247 ± 48 mm^3 | Tumor volume (Group 1 (vehicle, qw) dosed with 5 mpk on PG-D32, day 42): 134 ± 18 mm^3 | Tumor volume (Group 1 (vehicle, qw) dosed with 5 mpk on PG-D32, day 44): 108 ± 3 mm^3 | Tumor volume (Group 1 (vehicle, qw) dosed with 5 mpk on PG-D32, day 46): 79 ± 3 mm^3 | Tumor volume (Group 1 (vehicle, qw) dosed with 5 mpk on PG-D32, day 49): 63 ± 8 mm^3 | Tumor volume (Group 1 (vehicle, qw) dosed with 5 mpk on PG-D32, day 51): 62 ± 5 mm^3 | Tumor volume (Group 1 (vehicle, qw) dosed with 5 mpk on PG-D32, day 53): 53 ± 12 mm^3 | Tumor volume (Group 1 (vehicle, qw) dosed with 5 mpk on PG-D32, day 56): 52 ± 13 mm^3 | Tumor volume (Group 1 (vehicle, qw) dosed with 5 mpk on PG-D32, day 58): 58 ± 0 mm^3 | Tumor volume (Group 1 (vehicle, qw) dosed with 5 mpk on PG-D32, day 60): 61 ± 7 mm^3 | Tumor volume (Group 1 (vehicle, qw) dosed with 5 mpk on PG-D32, day 64): 71 ± 23 mm^3 | Tumor volume (Group 1 (vehicle, qw) dosed with 5 mpk on PG-D32, day 67): 66 ± 14 mm^3 | Tumor volume (Group 1 (vehicle, qw) dosed with 5 mpk on PG-D32, day 71): 73 ± 5 mm^3 | Tumor volume (Group 1 (vehicle, qw) dosed with 5 mpk on PG-D32, day 74): 82 ± 4 mm^3 | Tumor volume (Group 1 (vehicle, qw) dosed with 5 mpk on PG-D32, day 78): 90 ± 8 mm^3 | Tumor volume (Group 1 (vehicle, qw) dosed with 5 mpk on PG-D32, day 81): 104 ± 17 mm^3 | Tumor volume (Group 1 (vehicle, qw) dosed with 5 mpk on PG-D32, day 84): 110 ± 1 mm^3 | Tumor volume (Group 1 (vehicle, qw) dosed with 5 mpk on PG-D32, day 88): 106 ± 7 mm^3 | Tumor volume (Group 1 (vehicle, qw) dosed with 5 mpk on PG-D32, day 91): 110 ± 3 mm^3
